# PubChem BioAssay AID1259308 – NCATS, 2017
# Assay: 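Knock-downs that increase output of a recombinant reporter protein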 (primary screen)
# System: human HEK293 embryonic kidney cells stably expressing firefly luciferase (HEK-CMV-Luc2-Hygro)
# Reagents: single siRNA against human genes, 0.8 pmol siRNA per well
# Timing: 72 h
# Measured: 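Reporter luminescence and viable-cell signal on separate replicate plates, given as percent of non-targeting control and median/MAD z-scores, plus per-cell luciferase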
# Reading the numbers: total luciferase, z-score and total luciferase, % of control: higher = more reporter protein produced; luciferase per cell, z-score: higher = more reporter output per viable cell; viable cells, % of control: higher = more viable cells
# Call rule: 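An siRNA counts as active if its total luciferase robust z-score exceeds 3; genes with two or more such siRNAs out of three were retested with fresh siRNAs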
# Meaning of the calls: active = raised luciferase; inactive = no rise
# The deposit covers about 59,000 reagents; below is a random part of them. About 1,510 of all reagents (2.6%) were called active. 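Calls use total luciferase alone and ignore viability, so some active siRNAs may act by altering cell number.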 Entries without a mark were called inactive. Reagents against one gene are numbered here. Reagent sequences are not shown.
target gene,reagent,"total luciferase, z-score","total luciferase, % of control","luciferase per cell, z-score","viable cells, % of control"
EFNB3,1,-0.364,74.6,-0.23,88.6
EFNB3,2,0.344,88.7,0.223,93.5
EFNB3,3,0.654,94.9,0.694,88.3
PDE3B,1,-0.0839,80.2,-0.44,101
PDE3B,2,0.152,84.9,-0.68,113
PDE3B,3,-0.504,71.9,-0.0666,81.7
ADA,1,0.0899,83.7,-0.519,107
ADA,2,0.237,86.6,0.021,96.2
ADA,3,1.69,116,1.29,91.9
BRD4,1,3.24 (active),146,2.14,93.2
BRD4,2,-0.642,69.1,-0.659,91.9
BRD4,3,1.01,102,1.29,81.1
RBMS1,1,-2.04,41.3,-2.48,88.7
RBMS1,2,0.323,88.3,0.511,86.3
RBMS1,3,-0.583,70.3,-0.498,89.6
WRAP73,1,-0.0239,81.4,-0.673,109
WRAP73,2,0.628,94.4,0.564,90.9
WRAP73,3,-0.929,63.4,-1.21,97.4
NEIL2,1,0.821,98.2,1.36,76.8
NEIL2,2,-0.898,64,-0.792,88.1
NEIL2,3,0.111,84.1,0.137,90.6
STAP1,1,-0.471,72.5,-0.925,103
STAP1,2,1.65,115,0.365,116
STAP1,3,0.238,86.6,-0.712,117
TANC1,1,1.08,103,0.328,106
TANC1,2,-0.645,69.1,0.145,74.3
TANC1,3,-1.58,50.5,-1.24,78.3
GSTM2,1,1.07,103,0.42,103
GSTM2,2,-1.01,61.9,-1.55,104
GSTM2,3,2.31,128,2.41,75.6
LARP6,1,-0.95,63,-0.797,86.8
LARP6,2,0.496,91.8,0.243,96.2
LARP6,3,-0.662,68.7,-0.877,96.7
OR6C65,1,0.866,99.1,1.08,83.4
OR6C65,2,-0.878,64.4,0.0134,71.7
OR6C65,3,0.326,88.4,-0.819,123
COPB1,1,1.14,105,1.64,75.9
COPB1,2,0.195,85.8,0.726,79.2
COPB1,3,2.6,134,3.27,63.1
SOAT2,1,0.812,98,0.211,104
SOAT2,2,-1.03,61.5,-1.29,96.6
SOAT2,3,0.0836,83.6,-0.352,102
FAM81A,1,0.485,91.5,0.0371,101
FAM81A,2,-0.00853,81.7,-0.425,102
FAM81A,3,0.469,91.2,-0.383,113
SLC17A6,1,-0.37,74.5,0.044,82.3
SLC17A6,2,0.675,95.3,0.0458,105
SLC17A6,3,-1.63,49.5,-2.37,103
RPS6KB1,1,-1.21,57.9,-1.17,88
RPS6KB1,2,-0.921,63.6,-1.1,95
RPS6KB1,3,0.27,87.3,-0.171,102
ADGRL3,1,0.134,84.6,0.564,81.4
ADGRL3,2,-0.194,78,-0.0462,88.3
ADGRL3,3,1.55,113,0.739,104
LCA5L,1,-1.29,56.2,-1.16,85.2
LCA5L,2,1.01,102,0.746,93.7
LCA5L,3,0.518,92.2,-0.163,108
LZTR1,1,-0.109,79.7,0.0102,88.8
LZTR1,2,-0.863,64.7,0.753,59.3
LZTR1,3,5.88 (active),199,3.42,90.1
SIRT2,1,-1.1,60.1,-1.08,89.3
SIRT2,2,0.0343,82.6,1.6,60.6
SIRT2,3,0.0237,82.4,-0.103,94.6
ADPRH,1,-0.506,71.8,-0.993,104
ADPRH,2,1.66,115,0.99,99
ADPRH,3,-0.265,76.6,-0.761,105
UTRN,1,1.15,105,1.14,86.6
UTRN,2,0.0536,83,-0.206,97.9
UTRN,3,1.29,108,0.931,94.1
MID1IP1,1,-0.29,76.1,-0.0431,86
MID1IP1,2,1.45,111,0.7,103
MID1IP1,3,1.51,112,2.8,59.7
CLIP1,1,-1.21,57.8,-1.8,104
CLIP1,2,0.442,90.7,0.0543,99.9
CLIP1,3,0.0698,83.3,0.483,82
